Test results published in PMC8373112.
These are yes or no findings as the source states them, for the method shown. Some binding calls cover weakened binding; strength is not graded here. Sequences can lack the tags named with a protein.

T1: RqcH^DR-FLAG3 (B. subtilis RqcH with the D97A/R98A double substitution in the NFACT-N domain, C-terminally FLAG3-tagged) (B. subtilis) (UniProt O34693)
T1 sequence: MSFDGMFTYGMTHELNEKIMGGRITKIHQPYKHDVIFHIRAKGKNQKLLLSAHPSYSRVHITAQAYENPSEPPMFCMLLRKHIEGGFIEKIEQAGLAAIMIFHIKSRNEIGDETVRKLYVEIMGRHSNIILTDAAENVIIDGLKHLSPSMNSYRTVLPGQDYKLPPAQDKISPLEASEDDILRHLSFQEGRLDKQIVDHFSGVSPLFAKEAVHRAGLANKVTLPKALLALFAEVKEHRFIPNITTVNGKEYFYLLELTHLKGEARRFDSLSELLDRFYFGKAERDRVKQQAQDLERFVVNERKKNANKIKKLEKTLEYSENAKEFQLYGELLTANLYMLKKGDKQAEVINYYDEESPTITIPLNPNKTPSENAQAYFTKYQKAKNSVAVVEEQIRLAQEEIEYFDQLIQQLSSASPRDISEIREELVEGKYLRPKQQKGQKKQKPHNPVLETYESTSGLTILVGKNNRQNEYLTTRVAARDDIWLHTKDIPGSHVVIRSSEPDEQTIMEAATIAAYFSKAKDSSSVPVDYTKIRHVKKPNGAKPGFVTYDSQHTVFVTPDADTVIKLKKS


What was measured:
[1] = molecular target: ribosomal protein uL11 (B. subtilis (endogenous in B. subtilis)) (UniProt Q06796); assay: cryo-EM structure; 50S RQC complexes formed in vivo, affinity-purified through C-terminally FLAG3-tagged RqcH^DR from B. subtilis lysate; focussed classification; overall resolution 3.2 Å, RqcH and other bound factors less well resolved
[2] = molecular target: T1, RqcH^DR-FLAG3 (B. subtilis RqcH with the D97A/R98A double substitution in the NFACT-N domain, C-terminally FLAG3-tagged) (B. subtilis); assay: as above

| Binder | binding [1] | binding [2] |
| --- | --- | --- |
| RqcH^DR-FLAG3 (B. subtilis RqcH with the D97A/R98A double substitution in the NFACT-N domain, C-terminally FLAG3-tagged) (protein, UniProt O34693 1-570) MSFDGMFTYGMTHELNEKIMGGRITKIHQPYKHDVIFHIRAKGKNQKLLLSAHPSYSRVHITAQAYENPSEPPMFCMLLRKHIEGGFIEKIEQAGLAAIMIFHIKSRNEIGDETVRKLYVEIMGRHSNIILTDAAENVIIDGLKHLSPSMNSYRTVLPGQDYKLPPAQDKISPLEASEDDILRHLSFQEGRLDKQIVDHFSGVSPLFAKEAVHRAGLANKVTLPKALLALFAEVKEHRFIPNITTVNGKEYFYLLELTHLKGEARRFDSLSELLDRFYFGKAERDRVKQQAQDLERFVVNERKKNANKIKKLEKTLEYSENAKEFQLYGELLTANLYMLKKGDKQAEVINYYDEESPTITIPLNPNKTPSENAQAYFTKYQKAKNSVAVVEEQIRLAQEEIEYFDQLIQQLSSASPRDISEIREELVEGKYLRPKQQKGQKKQKPHNPVLETYESTSGLTILVGKNNRQNEYLTTRVAARDDIWLHTKDIPGSHVVIRSSEPDEQTIMEAATIAAYFSKAKDSSSVPVDYTKIRHVKKPNGAKPGFVTYDSQHTVFVTPDADTVIKLKKS | binds | – |
| RqcP (protein, UniProt P37557 1-86) MRLDKFLKVSRLIKRRTLAKEVADQGRISINGNQAKASSDVKPGDELTVRFGQKLVTVQVNELKDTTKKEEAANMYTILKEEKLGE | – | binds |
